PubChem BioAssay AID1224830 – NIAID | 2016

Assay: 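Host factors that control LPS-induced TNF expression in human macrophages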 (primary screen)
System: human THP-1 monocytic leukaemia cells, TNF dual-luciferase reporter clone, PMA-differentiated to macrophage-like cells
Reagent: siRNA pool against human genes, 50 nM
Time to read-out: LPS for 4 h, given about 3 days after siRNA transfection
Treatment: bacterial LPS (TLR4 ligand), 10 ng/ml
Measurement: 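Ratio of firefly to renilla light, scaled to the plate median and expressed as a robust z-score per replicate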
Direction: TNF reporter robust z-score: higher = stronger TNF reporter response to LPS
Call rule: 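a well is active when its z-score exceeds 2.8 or falls below -1.5; control wells carry no call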
This is an unselected part of about 18,000 deposited reagents. About 2,900 of all reagents (16%) count as active. 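Calls are made per well; low scores hint the gene aids the LPS response, high scores that it dampens it.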 Entries without a mark were called inactive. Repeated entries: four replicate wells of each siRNA pool.

TUBB7P scored TNF reporter robust z-score -1.17.
Against TUBB7P, the values are TNF reporter robust z-score -0.67.
TUBB7P scored TNF reporter robust z-score -0.76.
With knock-down of TUBB7P, the screen gave TNF reporter robust z-score -0.48.
Depletion of METTL21A gave: TNF reporter robust z-score 0.34.
Knock-down of METTL21A resulted in: TNF reporter robust z-score 0.66.
Against METTL21A the deposit lists TNF reporter robust z-score 0.38.
METTL21A gave TNF reporter robust z-score -0.51.
Depletion of SYTL5 gave: TNF reporter robust z-score 0.22.
Depletion of SYTL5 gave: TNF reporter robust z-score 0.16.
For SYTL5, the values are TNF reporter robust z-score 0.77.
With knock-down of SYTL5, the record shows TNF reporter robust z-score 1.78.
After knock-down of XPO1 the results were TNF reporter robust z-score 3.06 (active).
Knock-down of XPO1 came out at: TNF reporter robust z-score 3.11 (active).
With knock-down of XPO1, the screen gave TNF reporter robust z-score 4.58 (active).
Knock-down of XPO1 came out at: TNF reporter robust z-score 3.78 (active).
OR5AU1 scored TNF reporter robust z-score -0.25.
After knock-down of OR5AU1, the record shows TNF reporter robust z-score 0.25.
OR5AU1 gave TNF reporter robust z-score -0.99.
Silencing of OR5AU1 came out at: TNF reporter robust z-score 1.4.

Part of the list above, reformatted:
{"gene symbol":"METTL21A","TNF reporter robust z-score":-0.51}
{"gene symbol":"SYTL5","TNF reporter robust z-score":0.22}
{"gene symbol":"SYTL5","TNF reporter robust z-score":0.16}
